Reference: the supplement of paper PMC7752906
Where a name gives a salt, the structure may show the parent alone. Some of the results follow. This data set is noisy: repeats of one test often differ as much as different tests do.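 Wells held roughly 40 S. mansoni schistosomula, imaged in bright field over time against wells given 0.1% DMSO. The paper defines hits as drugs with a Mahalanobis distance of at least 2.47, three standard deviations above the DMSO control mean. Degeneracy is the proportion of worms classified as opaque.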

Test system: Schistosoma mansoni schistosomula
Assay: degeneracy (percent of somules classified as degenerate/opaque); higher = more parasite degeneration/death; extreme values may be limits of the assay
Details: 10 µM; 72 h

`CC(Cc1ccccc1)(NC(=O)CN)c1ccccc1` (stereo unspecified) [Remacemide Hydrochloride] was tested. Which degeneracy did it give?
The degeneracy was 22.7%.

With `COc1ccc(Cc2cnc(N)nc2N)cc1OC` [Diaveridine] as the molecule, how does the degeneracy read?
The degeneracy was 4.65%.

Which degeneracy does the source give for `CC[C@H]1OC(=O)[C@H](C)[C@@H](O[C@H]2C[C@@](C)(OC)[C@@H](O)[C@H](C)O2)[C@H](C)[C@@H](O[C@@H]2O[C@H](C)C[C@H](N(C)C)[C@H]2O)[C@](C)(OC)C[C@@H](C)C(=O)[C@H](C)[C@@H](O)[C@]1(C)O` [Clarithromycin] here?
Its degeneracy is 18.8%.

For `CCCCC1=NC2(CCCC2)C(=O)N1Cc1ccc(-c2ccccc2-c2nnn[nH]2)cc1` [Irbesartan], which degeneracy is on record?
Its degeneracy is 0%.

How did the degeneracy turn out when `CCCCOC(=O)c1ccc(N)cc1` [Butamben] was run?
The degeneracy was 6.25%.

How did the degeneracy turn out when `O=C(Nc1ccc(C(=O)O)c(O)c1)c1ccccc1` [Benzoylpas] was run?
Its degeneracy is 0%.

With `CCC(CC)(CC(=O)Nc1cccc(/C=C/c2nc(C3CCC3)cs2)c1)C(=O)O` [Cinalukast] as the molecule, how does the degeneracy read?
The degeneracy was 6.12%.

How did the degeneracy turn out when `CC(C)COCC(CN(Cc1ccccc1)c1ccccc1)N1CCCC1` (stereo unspecified) [Bepridil Hydrochloride] was run?
Its degeneracy is 100%.

With `C=NC(C(=O)NC1C(=O)N2C1SC(C)(C)C2C(=O)O)c1ccccc1` (stereo unspecified) [Metampicillin Sodium] as the molecule, how does the degeneracy read?
The degeneracy was 3.33%.

How did the degeneracy turn out when `CC[C@@]1(O)C(=O)OCc2c1cc1n(c2=O)Cc2cc3c([N+](=O)[O-])cccc3nc2-1` [Rubitecan] was run?
Its degeneracy is 0%.

How did the degeneracy turn out when `O=C(CCCl)NCc1ccccc1` [Beclamide] was run?
The degeneracy was 7.5%.

For `CN[C@H](CC(C)C)C(=O)N[C@H]1C(=O)N[C@@H](CC(N)=O)C(=O)N[C@H]2C(=O)N[C@H]3C(=O)N[C@H](C(=O)N[C@H](C(=O)O)c4cc(O)cc(O)c4-c4cc3ccc4O)[C@H](O)c3ccc(c(Cl)c3)Oc3cc2cc(c3O[C@@H]2O[C@H](CO)[C@@H](O)[C@H](O)[C@H]2O[C@H]2C[C@](C)(N)[C@H](O)[C@H](C)O2)Oc2ccc(cc2Cl)[C@H]1O` [Vancomycin], which degeneracy is on record?
The degeneracy was 7.14%.

With `CN[C@H](CC(C)C)C(=O)N[C@H]1C(=O)N[C@@H](CC(N)=O)C(=O)N[C@H]2C(=O)N[C@H]3C(=O)N[C@H](C(=O)N[C@H](C(=O)O)c4cc(O)cc(O)c4-c4cc3ccc4O)[C@H](O)c3ccc(c(Cl)c3)Oc3cc2cc(c3O[C@@H]2O[C@H](CO)[C@@H](O)[C@H](O)[C@H]2O[C@H]2C[C@](C)(N)[C@H](O)[C@H](C)O2)Oc2ccc(cc2Cl)[C@H]1O` [Vancomycin Hydrochloride] as the molecule, how does the degeneracy read?
Its degeneracy is 11.4%.

Which degeneracy does the source give for `COc1cc(C(=O)NS(=O)(=O)c2ccccc2C)ccc1Cc1cn(C)c2ccc(NC(=O)OC3CCCC3)cc12` [Zafirlukast] here?
Its degeneracy is 14.6%.

Which degeneracy does the source give for `S=C1SCN(Cc2ccccc2)CN1Cc1ccccc1` [sulbentine] here?
Its degeneracy is 100%.

`O=C(O)c1cc(=O)c2ccccc2o1` [Chromocarb] was tested. Which degeneracy did it give?
The degeneracy was 8.57%.

Which degeneracy does the source give for `C[C@]12CC[C@H]3C(=CCc4cc(O)ccc43)[C@@H]1CCC2=O` [Equilin] here?
Its degeneracy is 28.1%.

`C[C@]12C=CC(=O)C=C1CC[C@@H]1[C@@H]2[C@@H](O)C[C@@]2(C)[C@H]1CC[C@]2(O)C(=O)COP(=O)(O)O` [Prednisolone Sodium Phosphate] was tested. Which degeneracy did it give?
The degeneracy was 2.08%.

For `Cc1c(C(N)=O)cc([N+](=O)[O-])cc1[N+](=O)[O-]` [Dinitolmide], which degeneracy is on record?
The degeneracy was 4.76%.

For `CN(C)c1ccc2nc3ccc(=[N+](C)C)cc-3sc2c1` [Methylene Blue], which degeneracy is on record?
Its degeneracy is 100%.

Which degeneracy does the source give for `Cc1ncc([N+](=O)[O-])n1CC(O)CCl` (stereo unspecified) [Ornidazole] here?
The degeneracy was 3.85%.

With `N#Cc1ccc2[nH]cc(CCCCN3CCN(c4ccc5oc(C(N)=O)cc5c4)CC3)c2c1` [Vilazodone Hydrochloride] as the molecule, how does the degeneracy read?
Its degeneracy is 88.9%.

With `CN1C(C(=O)Nc2ccccn2)=C(O)c2sccc2S1(=O)=O` [Tenoxicam] as the molecule, how does the degeneracy read?
The degeneracy was 9.68%.

For `O=C(Nc1ccccc1)c1ccccc1O` [Salicylanilide], which degeneracy is on record?
Its degeneracy is 21.4%.

How did the degeneracy turn out when `CS(=O)(=O)c1ccc(C2=C(c3ccccc3)C(=O)OC2)cc1` [Rofecoxib] was run?
The degeneracy was 3.7%.

With `CN(C)CCC=C1c2ccccc2CCc2ccccc21` [Amitriptyline] as the molecule, how does the degeneracy read?
Its degeneracy is 91.3%.

Which degeneracy does the source give for `CCN(CC)CCOC(=O)C(c1ccccc1)C1CCCCC1` (stereo unspecified) [Drofenine Hydrochloride] here?
The degeneracy was 40.5%.

`COCC1=C(C(=O)OC(C)OC(=O)OC(C)C)N2C(=O)[C@@H](NC(=O)/C(=N\OC)c3csc(N)n3)[C@H]2SC1` (stereo partly specified) [Cefpodoxime Proxetil] was tested. Which degeneracy did it give?
Its degeneracy is 5.13%.

How did the degeneracy turn out when `COC(=O)C1=C(C)NC(C)=C(C(=O)O[C@H]2CCN(Cc3ccccc3)C2)[C@H]1c1cccc([N+](=O)[O-])c1` [Barnidipine] was run?
Its degeneracy is 10%.

With `CCCCC(CC)CN1CN(CC(CC)CCCC)CC(C)(N)C1` (stereo unspecified) [hexetidine] as the molecule, how does the degeneracy read?
The degeneracy was 100%.

How did the degeneracy turn out when `CNCC[C@H](Oc1cccc2ccccc12)c1cccs1` [Duloxetine Hydrochloride] was run?
Its degeneracy is 94.4%.

For `CC(=O)c1ccc2c(c1)N(CCCN1CCC(CCO)CC1)c1ccccc1S2` [Piperacetazine], which degeneracy is on record?
The degeneracy was 100%.

`CCCN(CCC)C(=O)C(CCC(=O)O)NC(=O)c1ccccc1` (stereo unspecified) [Proglumide] was tested. Which degeneracy did it give?
Its degeneracy is 5.13%.

Which degeneracy does the source give for `CCC(=O)c1ccc(O)cc1` [Paroxypropione] here?
The degeneracy was 7.69%.

`Cn1ccnc1S` [Thiamazole] was tested. Which degeneracy did it give?
Its degeneracy is 12.5%.

Which degeneracy does the source give for `Oc1ccc(Cl)c2cccnc12` [Cloxyquin] here?
Its degeneracy is 100%.

With `Nc1c(Br)cc(Br)cc1CN[C@H]1CC[C@H](O)CC1` [Ambroxol Hydrochloride] as the molecule, how does the degeneracy read?
Its degeneracy is 13.2%.

With `CC(C)(Sc1cc(C(C)(C)C)c(O)c(C(C)(C)C)c1)Sc1cc(C(C)(C)C)c(O)c(C(C)(C)C)c1` [Probucol] as the molecule, how does the degeneracy read?
The degeneracy was 0%.

`CC(=O)N[C@@H](CCC(N)=O)C(=O)O` [Aceglutamide] was tested. Which degeneracy did it give?
The degeneracy was 2.86%.

How did the degeneracy turn out when `CN1CCCN=C1COC(=O)C(O)(c1ccccc1)C1CCCCC1` (stereo unspecified) [Oxyphencyclimine Hydrochloride] was run?
Its degeneracy is 9.3%.

For `CC(C)(Oc1ccc(Cl)cc1)C(=O)O` [Clofibric Acid], which degeneracy is on record?
The degeneracy was 0%.

How did the degeneracy turn out when `CCC(=O)OCC(=O)[C@@]1(OC(=O)CC)[C@H](C)CC2C3C([C@@H](O)C[C@@]21C)[C@@]1(C)C=CC(=O)C=C1C[C@H]3Cl` (stereo partly specified) [Alclometazone Dipropionate] was run?
The degeneracy was 11.5%.

`CC(C)(S)[C@@H](N)C(=O)O` [Penicillamine] was tested. Which degeneracy did it give?
Its degeneracy is 4.88%.

Which degeneracy does the source give for `O=C(O)C1CSCN1` (stereo unspecified) [Timonacic] here?
Its degeneracy is 6.67%.

How did the degeneracy turn out when `CCCCCCCCCCC[C@@H](C[C@@H]1OC(=O)[C@H]1CCCCCC)OC(=O)[C@H](CC(C)C)NC=O` [orlistat] was run?
The degeneracy was 100%.

`O=C1O[C@H](CO)[C@@H](O)[C@H](O)[C@H]1O` [Gluconolactone] was tested. Which degeneracy did it give?
Its degeneracy is 5%.

With `Nc1ncnc(Nc2ccc(Cl)cc2)n1` [Chlorazanil Hydrochloride] as the molecule, how does the degeneracy read?
The degeneracy was 13.9%.

How did the degeneracy turn out when `Cc1cc(=O)n(-c2ccccc2)n1C` [Antipyrine] was run?
The degeneracy was 18.2%.

With `CO[C@H]1O[C@@H]2O[C@@]3(C)CC[C@H]4[C@H](C)CC[C@@H]([C@H]1C)[C@@]24OO3` [Artemether] as the molecule, how does the degeneracy read?
Its degeneracy is 7.41%.

For `NC12CC3CC(CC(C3)C1)C2` [Amantadine], which degeneracy is on record?
Its degeneracy is 15.4%.

How did the degeneracy turn out when `Cc1ccc(-c2ncc(Cl)cc2-c2ccc(S(C)(=O)=O)cc2)cn1` [Etoricoxib] was run?
The degeneracy was 8.82%.

`CC1CCc2c(N3CCC(O)CC3)c(F)cc3c(=O)c(C(=O)O)cn1c23` (stereo unspecified) [Nadifloxacin] was tested. Which degeneracy did it give?
The degeneracy was 3.03%.

With `CC(=O)N(O)CCCCCNC(=O)CCC(=O)N(O)CCCCCNC(=O)CCC(=O)N(O)CCCCCN` [Deferoxamine] as the molecule, how does the degeneracy read?
The degeneracy was 4.08%.

How did the degeneracy turn out when `CCN[C@H]1C[C@H](C)S(=O)(=O)c2sc(S(N)(=O)=O)cc21` [Dorzolamide??hcl] was run?
The degeneracy was 5.88%.

Which degeneracy does the source give for `CN1CC(=O)NC1=N` [Creatinine] here?
The degeneracy was 15.8%.

With `CN1CCc2cccc3c2[C@H]1Cc1ccc(O)c(O)c1-3` [Apomorphine Hydrochloride] as the molecule, how does the degeneracy read?
The degeneracy was 3.33%.

Which degeneracy does the source give for `CN1CCc2cccc3c2[C@H]1Cc1ccc(O)c(O)c1-3` [R(-)-apomorphine] here?
The degeneracy was 0%.

How did the degeneracy turn out when `CCC(NC(C)C)C(O)c1ccc(O)c(O)c1` (stereo unspecified) [Isoetharine Mesylate] was run?
The degeneracy was 9.68%.

For `CCC(Cc1c(I)cc(I)c(N)c1I)C(=O)O` (stereo unspecified) [Iopanic Acid], which degeneracy is on record?
The degeneracy was 7.14%.

`C[C@]12CC[C@@H]3c4ccc(O)cc4CC[C@H]3[C@@H]1CC[C@@H]2OC(=O)CCC1CCCC1` [Estradiol Cypionate] was tested. Which degeneracy did it give?
Its degeneracy is 16%.

`C[C@@H]1[C@H](O)[C@@H](C)/C=C/C=C/C=C/C=C/C=C/C=C/C=C/[C@H](O[C@@H]2O[C@H](C)[C@@H](O)[C@H](N)[C@@H]2O)C[C@@H]2O[C@](O)(C[C@@H](O)C[C@@H](O)[C@H](O)CC[C@@H](O)C[C@@H](O)CC(=O)O[C@H]1C)C[C@H](O)[C@H]2C(=O)O` [Amphotericin B] was tested. Which degeneracy did it give?
The degeneracy was 6.98%.

With `CCOC(=O)C(C)(C)Oc1ccc(Cl)cc1` [Clofibrate] as the molecule, how does the degeneracy read?
The degeneracy was 100%.

For `CCCc1nc(C(C)(C)O)c(C(=O)O)n1Cc1ccc(-c2ccccc2-c2nnn[nH]2)cc1` [Olmesartan], which degeneracy is on record?
Its degeneracy is 0%.

With `O=C(OCc1ccccc1)c1ccccc1` [Benzyl Benzoate] as the molecule, how does the degeneracy read?
Its degeneracy is 83.3%.

`OC(CCN1CCCCC1)(c1ccccc1)C1CCCCC1` (stereo unspecified) [Trihexyphenidyl] was tested. Which degeneracy did it give?
The degeneracy was 12.2%.

With `Cc1ccc2c(Cl)cc(Cl)c(O)c2n1` [Chlorquinaldol] as the molecule, how does the degeneracy read?
The degeneracy was 0%.

For `N=C(N)N/N=C/c1c(Cl)cccc1Cl` [Guanabenz], which degeneracy is on record?
The degeneracy was 16.3%.

How did the degeneracy turn out when `CN(C)CCOC(=O)COc1ccc(Cl)cc1` [Meclofenoxate] was run?
Its degeneracy is 9.38%.

With `Brc1c(NC2=NCCN2)ccc2nccnc12` as the molecule, how does the degeneracy read?
Its degeneracy is 2.33%.

Which degeneracy does the source give for `COC(=O)C(N)CS` (stereo unspecified) [Mecysteine Hydrochloride] here?
The degeneracy was 3.12%.

How did the degeneracy turn out when `CC(N)C12CC3CC(CC(C3)C1)C2` (stereo unspecified) [Rimantadine] was run?
The degeneracy was 100%.

For `CC(N)C12CC3CC(CC(C3)C1)C2` (stereo unspecified) [Rimantadine Hydrochloride], which degeneracy is on record?
The degeneracy was 0%.

Which degeneracy does the source give for `CN(C)CC[C@@H](c1ccc(Cl)cc1)c1ccccn1` [Dexchlorpheniramine] here?
Its degeneracy is 17.4%.

For `NC(N)=O`, which degeneracy is on record?
The degeneracy was 6.67%.

Which degeneracy does the source give for `CCOc1ccccc1OCCNC(C)Cc1ccc(OC)c(S(N)(=O)=O)c1` (stereo unspecified) [Amsulosin] here?
The degeneracy was 100%.

For `CN(C)[C@@H]1C(O)=C(C(N)=O)C(=O)[C@@]2(O)C(O)=C3C(=O)c4c(O)ccc(Cl)c4[C@@H](O)[C@H]3C[C@@H]12` [Demeclocycline Hydrochloride], which degeneracy is on record?
The degeneracy was 0%.
